Data: PMC11603163
No constants are given. Whether binding was seen depends on the method and setting. In cells and extracts the contact can be indirect. Some results given as binding are weak or reduced against the parent protein; the word gives no strength. For some of these results: Sequences can lack the tags named with a protein.

Assays:
RDR2-eGFP (Arabidopsis) = target: T1, RDR2-eGFP (Arabidopsis) (UniProt O82504); assay: co-IP; anti-GFP IP (Miltenyi anti-GFP kit) from flowers of RDR2-eGFP F1 crosses to NRPD1-3xF variant lines; western blots
T1 sequence: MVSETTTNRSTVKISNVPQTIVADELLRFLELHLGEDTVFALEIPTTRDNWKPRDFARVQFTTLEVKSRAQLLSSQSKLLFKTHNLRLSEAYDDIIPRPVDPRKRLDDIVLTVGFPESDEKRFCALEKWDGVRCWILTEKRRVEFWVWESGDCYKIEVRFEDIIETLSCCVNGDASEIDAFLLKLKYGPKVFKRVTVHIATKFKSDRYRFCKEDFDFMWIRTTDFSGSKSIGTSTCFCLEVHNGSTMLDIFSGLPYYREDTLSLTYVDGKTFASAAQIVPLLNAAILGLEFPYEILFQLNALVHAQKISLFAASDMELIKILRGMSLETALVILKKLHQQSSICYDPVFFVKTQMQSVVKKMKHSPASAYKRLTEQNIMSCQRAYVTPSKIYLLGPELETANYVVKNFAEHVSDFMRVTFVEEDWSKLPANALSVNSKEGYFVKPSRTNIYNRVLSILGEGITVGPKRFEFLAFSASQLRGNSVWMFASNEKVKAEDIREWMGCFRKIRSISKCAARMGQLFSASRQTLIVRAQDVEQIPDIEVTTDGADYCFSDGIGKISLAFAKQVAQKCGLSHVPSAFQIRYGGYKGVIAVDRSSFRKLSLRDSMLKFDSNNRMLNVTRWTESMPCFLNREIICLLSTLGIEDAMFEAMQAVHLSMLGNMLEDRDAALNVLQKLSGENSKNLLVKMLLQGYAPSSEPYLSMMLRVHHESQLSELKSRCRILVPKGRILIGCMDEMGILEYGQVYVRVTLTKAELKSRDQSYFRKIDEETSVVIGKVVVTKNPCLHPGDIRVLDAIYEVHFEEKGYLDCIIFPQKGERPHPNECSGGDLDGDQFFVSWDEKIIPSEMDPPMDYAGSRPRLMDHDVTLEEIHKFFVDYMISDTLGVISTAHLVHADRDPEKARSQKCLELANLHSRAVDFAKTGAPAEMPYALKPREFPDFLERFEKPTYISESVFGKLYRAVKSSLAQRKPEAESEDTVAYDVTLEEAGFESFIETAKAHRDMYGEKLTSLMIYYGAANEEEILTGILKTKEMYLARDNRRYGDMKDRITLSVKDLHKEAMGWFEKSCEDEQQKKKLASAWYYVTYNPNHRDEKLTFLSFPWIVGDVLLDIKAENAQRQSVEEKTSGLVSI

3xHA-CLSY1 (Arabidopsis) = target: T2, 3xHA-CLSY1 (Arabidopsis) (UniProt Q9M297); assay: co-IP; anti-HA IP (uMACS HA kit) from flowers of SHH1-3xHA F1 crosses or 3xHA-CLSY1 super-transformed NRPD1-3xF variant lines; western blots
T2 sequence: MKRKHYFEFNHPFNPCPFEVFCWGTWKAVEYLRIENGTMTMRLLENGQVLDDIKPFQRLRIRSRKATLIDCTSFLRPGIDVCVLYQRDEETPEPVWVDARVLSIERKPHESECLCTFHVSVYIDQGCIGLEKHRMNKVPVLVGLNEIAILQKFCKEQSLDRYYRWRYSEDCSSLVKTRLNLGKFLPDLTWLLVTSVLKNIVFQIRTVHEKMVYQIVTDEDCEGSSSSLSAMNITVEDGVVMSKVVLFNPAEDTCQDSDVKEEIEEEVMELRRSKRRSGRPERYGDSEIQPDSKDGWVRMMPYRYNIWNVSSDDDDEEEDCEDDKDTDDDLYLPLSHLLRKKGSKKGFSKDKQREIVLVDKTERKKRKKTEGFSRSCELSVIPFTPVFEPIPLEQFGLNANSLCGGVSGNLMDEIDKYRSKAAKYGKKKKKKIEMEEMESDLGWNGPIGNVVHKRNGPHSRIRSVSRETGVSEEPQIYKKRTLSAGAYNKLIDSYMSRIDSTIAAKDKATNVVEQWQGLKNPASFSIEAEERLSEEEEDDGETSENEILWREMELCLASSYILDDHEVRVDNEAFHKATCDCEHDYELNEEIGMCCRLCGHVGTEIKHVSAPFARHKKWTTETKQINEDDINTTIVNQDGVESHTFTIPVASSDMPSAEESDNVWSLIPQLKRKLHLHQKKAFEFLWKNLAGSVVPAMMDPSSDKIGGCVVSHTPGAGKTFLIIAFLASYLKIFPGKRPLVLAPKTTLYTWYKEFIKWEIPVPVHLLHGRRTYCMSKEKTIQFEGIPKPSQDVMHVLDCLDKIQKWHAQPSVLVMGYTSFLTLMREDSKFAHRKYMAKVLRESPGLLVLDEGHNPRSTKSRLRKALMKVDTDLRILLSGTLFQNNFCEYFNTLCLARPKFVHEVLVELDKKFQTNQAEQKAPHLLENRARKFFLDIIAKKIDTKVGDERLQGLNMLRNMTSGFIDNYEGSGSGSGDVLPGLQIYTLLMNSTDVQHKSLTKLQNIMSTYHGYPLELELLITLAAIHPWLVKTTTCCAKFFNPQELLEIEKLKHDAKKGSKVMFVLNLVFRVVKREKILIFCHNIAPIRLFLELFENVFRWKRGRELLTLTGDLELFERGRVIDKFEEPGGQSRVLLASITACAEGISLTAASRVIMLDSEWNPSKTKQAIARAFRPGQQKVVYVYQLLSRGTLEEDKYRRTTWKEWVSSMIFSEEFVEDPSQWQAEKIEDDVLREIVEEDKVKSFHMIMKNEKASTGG

SHH1-3xHA (Arabidopsis) = target: T3, SHH1-3xHA (Arabidopsis) (UniProt Q9XI47); assay: as above
T3 sequence: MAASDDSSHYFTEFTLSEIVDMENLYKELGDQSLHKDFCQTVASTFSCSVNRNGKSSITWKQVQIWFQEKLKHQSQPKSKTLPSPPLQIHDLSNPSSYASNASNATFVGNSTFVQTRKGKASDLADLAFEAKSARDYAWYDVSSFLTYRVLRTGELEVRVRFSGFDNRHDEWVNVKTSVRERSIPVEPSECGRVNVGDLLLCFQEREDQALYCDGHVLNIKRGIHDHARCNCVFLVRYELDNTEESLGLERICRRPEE

[1] = target: T4, CLSY3-3xF-BLRP (Arabidopsis) (UniProt F4I8S3); assay: co-IP; streptavidin beads (M-280 Dynabeads) capture CLSY3-3xF-BLRP from flower extracts of F1 plants crossed to NRPD1-3xF WT or CYC-AAAA; anti-FLAG western blot; dilution series of the WT co-IP
T4 sequence (chain, biotin on the Biotin Ligase Recognition Peptide): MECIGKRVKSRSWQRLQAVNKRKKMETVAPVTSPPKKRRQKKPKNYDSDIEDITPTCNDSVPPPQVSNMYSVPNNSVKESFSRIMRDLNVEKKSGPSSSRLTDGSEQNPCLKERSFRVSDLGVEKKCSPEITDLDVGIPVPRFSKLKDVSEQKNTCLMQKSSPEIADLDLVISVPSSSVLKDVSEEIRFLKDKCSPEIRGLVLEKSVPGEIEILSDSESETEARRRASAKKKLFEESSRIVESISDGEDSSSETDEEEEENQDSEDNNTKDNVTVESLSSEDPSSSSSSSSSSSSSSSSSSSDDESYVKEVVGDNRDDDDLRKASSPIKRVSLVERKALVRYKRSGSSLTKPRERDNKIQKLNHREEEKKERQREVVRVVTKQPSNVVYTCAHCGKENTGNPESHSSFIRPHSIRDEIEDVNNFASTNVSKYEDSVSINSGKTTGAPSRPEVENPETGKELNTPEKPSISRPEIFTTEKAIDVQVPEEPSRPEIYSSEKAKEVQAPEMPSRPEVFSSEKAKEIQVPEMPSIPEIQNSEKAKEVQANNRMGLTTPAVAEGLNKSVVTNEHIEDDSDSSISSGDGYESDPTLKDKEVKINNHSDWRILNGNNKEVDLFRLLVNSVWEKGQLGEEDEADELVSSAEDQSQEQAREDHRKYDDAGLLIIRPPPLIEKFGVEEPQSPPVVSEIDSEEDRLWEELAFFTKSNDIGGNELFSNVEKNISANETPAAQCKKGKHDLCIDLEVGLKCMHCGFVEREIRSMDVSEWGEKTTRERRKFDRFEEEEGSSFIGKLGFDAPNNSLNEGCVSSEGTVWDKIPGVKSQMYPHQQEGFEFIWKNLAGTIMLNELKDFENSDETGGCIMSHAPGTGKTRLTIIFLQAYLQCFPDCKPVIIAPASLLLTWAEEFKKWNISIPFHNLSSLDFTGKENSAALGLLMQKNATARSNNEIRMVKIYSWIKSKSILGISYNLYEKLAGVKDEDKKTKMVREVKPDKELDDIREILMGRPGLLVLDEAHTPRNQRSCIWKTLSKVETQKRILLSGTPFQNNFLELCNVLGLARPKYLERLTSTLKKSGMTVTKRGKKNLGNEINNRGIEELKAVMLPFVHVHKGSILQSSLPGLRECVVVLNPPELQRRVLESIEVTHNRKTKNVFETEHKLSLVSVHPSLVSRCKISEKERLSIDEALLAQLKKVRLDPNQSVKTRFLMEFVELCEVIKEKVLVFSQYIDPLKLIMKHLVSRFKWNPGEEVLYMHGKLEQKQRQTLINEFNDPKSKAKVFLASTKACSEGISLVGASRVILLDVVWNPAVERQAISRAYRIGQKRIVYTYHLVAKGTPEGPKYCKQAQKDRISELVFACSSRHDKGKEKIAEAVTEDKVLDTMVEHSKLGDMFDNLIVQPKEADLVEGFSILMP

Measured: binding

B1: NRPD1-3xFWT (protein, UniProt Q9LQ02 1-1453)
chain: MEDDCEELQVPVGTLTSIGFSISNNNDRDKMSVLEVEAPNQVTDSRLGLPNPDSVCRTCGSKDRKVCEGHFGVINFAYSIINPYFLKEVAALLNKICPGCKYIRKKQFQITEDQPERCRYCTLNTGYPLMKFRVTTKEVFRRSGIVVEVNEESLMKLKKRGVLTLPPDYWSFLPQDSNIDESCLKPTRRIITHAQVYALLLGIDQRLIKKDIPMFNSLGLTSFPVTPNGYRVTEIVHQFNGARLIFDERTRIYKKLVGFEGNTLELSSRVMECMQYSRLFSETVSSSKDSANPYQKKSDTPKLCGLRFMKDVLLGKRSDHTFRTVVVGDPSLKLNEIGIPESIAKRLQVSEHLNQCNKERLVTSFVPTLLDNKEMHVRRGDRLVAIQVNDLQTGDKIFRSLMDGDTVLMNRPPSIHQHSLIAMTVRILPTTSVVSLNPICCLPFRGDFDGDCLHGYVPQSIQAKVELDELVALDKQLINRQNGRNLLSLGQDSLTAAYLVNVEKNCYLNRAQMQQLQMYCPFQLPPPAIIKASPSSTEPQWTGMQLFGMLFPPGFDYTYPLNNVVVSNGELLSFSEGSAWLRDGEGNFIERLLKHDKGKVLDIIYSAQEMLSQWLLMRGLSVSLADLYLSSDLQSRKNLTEEISYGLREAEQVCNKQQLMVESWRDFLAVNGEDKEEDSVSDLARFCYERQKSATLSELAVSAFKDAYRDVQALAYRYGDQSNSFLIMSKAGSKGNIGKLVQHSMCIGLQNSAVSLSFGFPRELTCAAWNDPNSPLRGAKGKDSTTTESYVPYGVIENSFLTGLNPLESFVHSVTSRDSSFSGNADLPGTLSRRLMFFMRDIYAAYDGTVRNSFGNQLVQFTYETDGPVEDITGEALGSLSACALSEAAYSALDQPISLLETSPLLNLKNVLECGSKKGQREQTMSLYLSEYLSKKKHGFEYGSLEIKNHLEKLSFSEIVSTSMIIFSPSSNTKVPLSPWVCHFHISEKVLKRKQLSAESVVSSLNEQYKSRNRELKLDIVDLDIQNTNHCSSDDQAMKDDNVCITVTVVEASKHSVLELDAIRLVLIPFLLDSPVKGDQGIKKVNILWTDRPKAPKRNGNHLAGELYLKVTMYGDRGKRNCWTALLETCLPIMDMIDWGRSHPDNIRQCCSVYGIDAGRSIFVANLESAVSDTGKEILREHLLLVADSLSVTGEFVALNAKGWSKQRQVESTPAPFTQACFSSPSQCFLKAAKEGVRDDLQGSIDALAWGKVPGFGTGDQFEIIISPKVHGFTTPVDVYDLLSSTKTMRRTNSAPKSDKATVQPFGLLHSAFLKDIKVLDGKGIPMSLLRTIFTWKNIELLSQSLKRILHSYEINELLNERDEGLVKMVLQLHPNSVEKIGPGVKGIRVAKSKHGDSCCFEVVRIDGTFEDFSYHKCVLGATKIIAPKKMNFYKSKYLKNGTLESGGFSENP
binds: all assays above
